Results are given in words; binding and its absence hold for the method and conditions named. In cells and extracts the contact can be indirect. Some entries that bind do so weakly or less than the wild type.
What was measured:
[1] = target: Beclin-1 (host, endogenously expressed) (human (endogenous in HeLa)) (UniProt Q14457); assay: co-IP
[2] = target: GFP-tagged codon-optimized full-length Risk1 WT (R. typhi) (UniProt Q68XM2); assay: co-IP

Amino acid sequences for entries named in this document (tags omitted).
UniProt Q14457: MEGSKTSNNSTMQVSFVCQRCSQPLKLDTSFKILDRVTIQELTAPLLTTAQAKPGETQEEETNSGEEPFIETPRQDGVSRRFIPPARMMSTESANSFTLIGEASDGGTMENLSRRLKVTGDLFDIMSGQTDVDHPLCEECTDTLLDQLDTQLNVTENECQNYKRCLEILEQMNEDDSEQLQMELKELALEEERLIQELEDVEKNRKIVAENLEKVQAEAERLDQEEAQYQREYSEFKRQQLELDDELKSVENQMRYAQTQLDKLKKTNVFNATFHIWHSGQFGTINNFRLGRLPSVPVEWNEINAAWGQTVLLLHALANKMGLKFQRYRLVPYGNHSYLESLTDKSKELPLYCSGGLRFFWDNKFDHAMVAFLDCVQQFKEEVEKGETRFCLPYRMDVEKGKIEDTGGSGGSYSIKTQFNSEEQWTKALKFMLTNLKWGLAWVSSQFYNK
UniProt Q68XM2: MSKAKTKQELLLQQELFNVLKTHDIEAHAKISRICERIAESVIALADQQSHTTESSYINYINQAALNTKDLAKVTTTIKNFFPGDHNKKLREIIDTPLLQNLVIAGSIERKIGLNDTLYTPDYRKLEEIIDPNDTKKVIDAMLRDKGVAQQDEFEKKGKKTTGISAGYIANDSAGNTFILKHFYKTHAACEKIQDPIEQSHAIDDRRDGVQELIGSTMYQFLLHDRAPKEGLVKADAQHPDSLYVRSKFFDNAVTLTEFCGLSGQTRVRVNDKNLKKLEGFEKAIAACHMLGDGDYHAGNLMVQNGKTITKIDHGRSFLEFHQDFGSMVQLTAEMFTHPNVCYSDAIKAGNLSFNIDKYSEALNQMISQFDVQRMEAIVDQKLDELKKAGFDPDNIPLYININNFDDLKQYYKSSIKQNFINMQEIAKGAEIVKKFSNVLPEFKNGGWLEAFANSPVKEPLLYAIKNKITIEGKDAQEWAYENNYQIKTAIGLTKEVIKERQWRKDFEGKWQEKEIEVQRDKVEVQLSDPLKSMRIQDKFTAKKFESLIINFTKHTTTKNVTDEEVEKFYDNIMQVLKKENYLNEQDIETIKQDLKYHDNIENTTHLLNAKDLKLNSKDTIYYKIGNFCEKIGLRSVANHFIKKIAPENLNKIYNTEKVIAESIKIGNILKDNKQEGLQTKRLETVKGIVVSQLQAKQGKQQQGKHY

## Rickettsia intracellular secreted kinase-1 (Risk1) (from UniProt Q68XM2 1-707)
[1]
  binding: binds

## Beclin-1 (host, endogenously expressed) (from UniProt Q14457 1-450)
[2]
  binding: binds

From paper PMC7298712
